From publication doi:10.1101/2023.12.07.570680
These are yes or no findings as the source states them, for the method shown. For some of these results: In cells and extracts the contact can be indirect. Some binding calls cover weakened binding; strength is not graded here. Tags and fused reporters may be left off the sequences shown.

What was measured:
[1] = target: T1, EMB1270 fused to C-terminal luciferase (EMB1270-cLUC) (Arabidopsis thaliana) (UniProt Q5G1S8); assay: split reporter
T1 sequence: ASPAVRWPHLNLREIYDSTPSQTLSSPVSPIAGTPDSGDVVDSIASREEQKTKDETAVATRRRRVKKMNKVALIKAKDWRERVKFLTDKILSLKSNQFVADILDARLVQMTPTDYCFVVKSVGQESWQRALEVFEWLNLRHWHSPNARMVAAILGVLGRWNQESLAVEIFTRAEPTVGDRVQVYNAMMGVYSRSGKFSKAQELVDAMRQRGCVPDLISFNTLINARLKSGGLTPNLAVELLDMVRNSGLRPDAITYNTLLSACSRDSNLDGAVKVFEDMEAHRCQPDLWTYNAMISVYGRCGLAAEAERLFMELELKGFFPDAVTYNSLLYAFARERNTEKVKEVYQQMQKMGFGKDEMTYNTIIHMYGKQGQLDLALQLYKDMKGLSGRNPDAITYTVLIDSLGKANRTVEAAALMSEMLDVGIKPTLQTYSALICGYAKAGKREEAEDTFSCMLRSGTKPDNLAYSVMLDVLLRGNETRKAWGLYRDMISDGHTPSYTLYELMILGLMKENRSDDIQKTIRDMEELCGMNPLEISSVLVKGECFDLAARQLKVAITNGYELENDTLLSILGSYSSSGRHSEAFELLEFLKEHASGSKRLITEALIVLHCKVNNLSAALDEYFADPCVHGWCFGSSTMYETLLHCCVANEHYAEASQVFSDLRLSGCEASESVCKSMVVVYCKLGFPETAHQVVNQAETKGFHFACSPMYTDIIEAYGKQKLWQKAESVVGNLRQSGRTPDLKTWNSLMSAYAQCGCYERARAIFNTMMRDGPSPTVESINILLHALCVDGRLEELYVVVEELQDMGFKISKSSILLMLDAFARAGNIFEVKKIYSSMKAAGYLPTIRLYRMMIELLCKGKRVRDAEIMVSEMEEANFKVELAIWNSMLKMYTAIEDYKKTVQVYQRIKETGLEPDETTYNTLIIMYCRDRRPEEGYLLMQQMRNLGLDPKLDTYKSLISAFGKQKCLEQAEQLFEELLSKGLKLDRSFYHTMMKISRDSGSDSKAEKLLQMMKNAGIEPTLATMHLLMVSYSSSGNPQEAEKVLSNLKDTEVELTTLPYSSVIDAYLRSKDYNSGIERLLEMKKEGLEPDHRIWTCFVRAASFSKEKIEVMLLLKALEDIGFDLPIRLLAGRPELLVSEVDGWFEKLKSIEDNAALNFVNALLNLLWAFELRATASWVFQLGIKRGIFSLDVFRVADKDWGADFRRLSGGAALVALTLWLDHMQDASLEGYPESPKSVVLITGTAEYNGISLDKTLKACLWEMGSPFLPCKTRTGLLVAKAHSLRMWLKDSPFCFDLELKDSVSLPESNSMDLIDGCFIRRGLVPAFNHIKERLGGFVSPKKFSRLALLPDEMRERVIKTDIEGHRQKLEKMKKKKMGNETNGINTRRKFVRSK

[2] = target: T2, CFM2 fused to C-terminal luciferase (CFM2-cLUC) (Arabidopsis thaliana) (UniProt Q8L7C2); assay: split reporter
T2 sequence: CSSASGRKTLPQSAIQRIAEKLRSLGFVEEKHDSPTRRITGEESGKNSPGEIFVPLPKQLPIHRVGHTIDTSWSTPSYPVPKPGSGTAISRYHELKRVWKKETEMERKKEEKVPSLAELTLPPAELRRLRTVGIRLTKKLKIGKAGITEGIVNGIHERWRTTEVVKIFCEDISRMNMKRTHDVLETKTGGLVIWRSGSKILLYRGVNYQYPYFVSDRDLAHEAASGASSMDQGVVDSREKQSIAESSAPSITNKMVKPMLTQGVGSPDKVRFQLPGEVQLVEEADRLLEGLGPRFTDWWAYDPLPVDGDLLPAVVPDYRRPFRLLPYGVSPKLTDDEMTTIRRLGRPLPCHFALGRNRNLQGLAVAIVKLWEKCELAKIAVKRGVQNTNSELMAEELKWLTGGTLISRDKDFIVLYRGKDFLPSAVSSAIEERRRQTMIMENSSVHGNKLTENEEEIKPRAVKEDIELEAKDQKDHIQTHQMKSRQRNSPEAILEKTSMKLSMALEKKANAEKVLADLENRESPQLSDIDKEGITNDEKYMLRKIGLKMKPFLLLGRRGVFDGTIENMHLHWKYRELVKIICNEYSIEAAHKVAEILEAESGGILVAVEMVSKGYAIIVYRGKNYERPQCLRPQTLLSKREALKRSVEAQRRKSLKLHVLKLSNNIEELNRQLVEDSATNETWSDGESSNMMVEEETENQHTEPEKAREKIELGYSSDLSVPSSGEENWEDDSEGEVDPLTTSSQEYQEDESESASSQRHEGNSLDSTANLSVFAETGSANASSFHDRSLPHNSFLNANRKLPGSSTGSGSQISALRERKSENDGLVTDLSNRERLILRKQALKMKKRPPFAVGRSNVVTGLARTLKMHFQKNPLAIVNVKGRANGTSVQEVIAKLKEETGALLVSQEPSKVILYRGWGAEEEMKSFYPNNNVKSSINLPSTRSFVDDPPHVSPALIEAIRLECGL

[3] = target: T3, CFM2 (yeast two-hybrid fusion, transit peptide removed) (Arabidopsis thaliana) (UniProt Q8L7C2); assay: two-hybrid
T3 sequence: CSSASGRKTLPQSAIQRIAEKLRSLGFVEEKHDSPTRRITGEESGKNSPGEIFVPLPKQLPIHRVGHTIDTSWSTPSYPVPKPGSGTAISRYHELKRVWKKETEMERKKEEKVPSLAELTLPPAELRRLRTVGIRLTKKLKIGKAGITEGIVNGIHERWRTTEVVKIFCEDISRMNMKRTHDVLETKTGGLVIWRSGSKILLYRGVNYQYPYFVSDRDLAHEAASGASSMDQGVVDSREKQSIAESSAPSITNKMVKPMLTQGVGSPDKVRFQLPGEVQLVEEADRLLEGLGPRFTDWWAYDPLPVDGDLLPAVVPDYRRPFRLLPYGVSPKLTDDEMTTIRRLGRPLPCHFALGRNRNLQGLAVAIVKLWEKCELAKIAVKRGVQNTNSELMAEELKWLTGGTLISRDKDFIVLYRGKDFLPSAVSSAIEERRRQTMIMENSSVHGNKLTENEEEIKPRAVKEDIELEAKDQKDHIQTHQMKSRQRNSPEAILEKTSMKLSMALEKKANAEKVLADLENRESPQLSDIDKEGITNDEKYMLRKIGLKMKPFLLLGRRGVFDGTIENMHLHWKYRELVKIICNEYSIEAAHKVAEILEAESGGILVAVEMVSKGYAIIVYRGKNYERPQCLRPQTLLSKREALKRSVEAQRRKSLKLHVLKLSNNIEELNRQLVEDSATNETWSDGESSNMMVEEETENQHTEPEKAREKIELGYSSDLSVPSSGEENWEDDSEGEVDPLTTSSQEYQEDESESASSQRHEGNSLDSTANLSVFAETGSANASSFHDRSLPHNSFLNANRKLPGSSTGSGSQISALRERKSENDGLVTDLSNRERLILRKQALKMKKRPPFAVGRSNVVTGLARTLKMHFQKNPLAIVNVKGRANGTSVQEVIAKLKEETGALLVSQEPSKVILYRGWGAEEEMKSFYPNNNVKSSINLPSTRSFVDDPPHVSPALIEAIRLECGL

[4] = target: T4, EMB1270 (yeast two-hybrid fusion, transit peptide removed) (Arabidopsis thaliana) (UniProt Q5G1S8); assay: two-hybrid
T4 sequence: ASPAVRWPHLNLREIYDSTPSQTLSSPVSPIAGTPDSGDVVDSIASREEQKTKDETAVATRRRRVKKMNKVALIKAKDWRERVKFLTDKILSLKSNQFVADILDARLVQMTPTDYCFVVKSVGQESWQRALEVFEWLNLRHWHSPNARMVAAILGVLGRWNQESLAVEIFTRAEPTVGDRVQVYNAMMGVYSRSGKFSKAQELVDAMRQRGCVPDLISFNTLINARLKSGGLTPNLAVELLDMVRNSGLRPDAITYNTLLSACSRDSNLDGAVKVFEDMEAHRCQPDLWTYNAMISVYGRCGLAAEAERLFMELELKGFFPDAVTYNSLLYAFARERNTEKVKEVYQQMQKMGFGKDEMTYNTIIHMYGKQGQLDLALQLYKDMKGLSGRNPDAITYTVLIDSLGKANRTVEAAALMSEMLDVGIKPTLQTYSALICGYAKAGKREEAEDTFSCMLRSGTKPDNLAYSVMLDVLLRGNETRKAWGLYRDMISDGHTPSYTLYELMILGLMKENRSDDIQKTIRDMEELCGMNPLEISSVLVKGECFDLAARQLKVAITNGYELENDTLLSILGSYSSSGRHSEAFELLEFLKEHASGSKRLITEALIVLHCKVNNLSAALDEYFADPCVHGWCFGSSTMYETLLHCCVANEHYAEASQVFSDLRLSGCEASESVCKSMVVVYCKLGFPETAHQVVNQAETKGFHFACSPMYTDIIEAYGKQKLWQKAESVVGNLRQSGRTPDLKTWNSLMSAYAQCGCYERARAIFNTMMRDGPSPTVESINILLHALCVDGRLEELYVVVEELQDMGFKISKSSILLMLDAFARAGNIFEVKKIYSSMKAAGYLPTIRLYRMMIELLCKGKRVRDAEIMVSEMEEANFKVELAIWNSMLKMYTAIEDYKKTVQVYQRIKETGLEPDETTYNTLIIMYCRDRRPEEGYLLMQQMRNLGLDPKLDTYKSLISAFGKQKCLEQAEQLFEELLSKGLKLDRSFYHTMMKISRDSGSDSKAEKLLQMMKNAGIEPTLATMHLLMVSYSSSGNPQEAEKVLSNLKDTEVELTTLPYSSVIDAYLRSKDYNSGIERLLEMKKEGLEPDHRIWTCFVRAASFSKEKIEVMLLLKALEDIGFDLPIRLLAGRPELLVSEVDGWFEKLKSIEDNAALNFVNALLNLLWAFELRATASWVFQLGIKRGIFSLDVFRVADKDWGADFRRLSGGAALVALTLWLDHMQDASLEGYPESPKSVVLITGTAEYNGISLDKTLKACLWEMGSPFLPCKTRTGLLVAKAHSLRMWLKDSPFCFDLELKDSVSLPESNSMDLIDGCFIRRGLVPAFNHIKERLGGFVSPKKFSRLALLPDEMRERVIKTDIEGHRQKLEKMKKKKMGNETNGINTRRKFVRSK

B1: EMB1006 fused to N-terminal luciferase (EMB1006-nLUC) (protein, UniProt Q9FGR7 45-723)
chain: ATSPSSSSSSPSIFLSCFDDALPDKIQQPENSTINSEESECEEEDDEEGDDFTDPILKFFKSRTLTSESTADPARESKFSLQKNRRTSWHLAPDFADPETEIESKPEESVFVTNQQTLGVHIPFESGVAREILELAKNLKENQTLGEMLSGFERRVSDTECVEALVMMGESGFVKSCLYFYEWMSLQEPSLASPRACSVLFTLLGRERMADYILLLLSNLPDKEEFRDVRLYNAAISGLSASQRYDDAWEVYEAMDKINVYPDNVTCAILITTLRKAGRSAKEVWEIFEKMSEKGVKWSQDVFGGLVKSFCDEGLKEEALVIQTEMEKKGIRSNTIVYNTLMDAYNKSNHIEEVEGLFTEMRDKGLKPSAATYNILMDAYARRMQPDIVETLLREMEDLGLEPNVKSYTCLISAYGRTKKMSDMAADAFLRMKKVGLKPSSHSYTALIHAYSVSGWHEKAYASFEEMCKEGIKPSVETYTSVLDAFRRSGDTGKLMEIWKLMLREKIKGTRITYNTLLDGFAKQGLYIEARDVVSEFSKMGLQPSVMTYNMLMNAYARGGQDAKLPQLLKEMAALNLKPDSITYSTMIYAFVRVRDFKRAFFYHKMMVKSGQVPDPRSYEKLRAILEDKAKTKNRKDKTAILGIINSKFGRVKAKTKGKKDEFWKYKTNRTTSPGRHRS
[1]
  binding: binds
[2]
  binding: binds

B2: EMB976 (yeast two-hybrid fusion, transit peptide removed) (protein, UniProt O04647 1-1038)
chain: MKSDFLTSTTHFNPSIFLPKIPSRNSRISIKSSSSSSKVRPDPWSLSDGNPEKPKPRYERPKHPLSDDDARRIIKKKAQYLSTLRRNQGSQAMTPKWIKRTPEQMVQYLEDDRNGQMYGKHVVAAIKTVRGLSQRRQGSDDMRFVMSSFVAKLSFRDMCVVLKEQRGWRQVRDFFSWMKLQLSYRPSVVVYTIVLRLYGQVGKIKMAEETFLEMLEVGCEPDAVACGTMLCTYARWGRHSAMLTFYKAVQERRILLSTSVYNFMLSSLQKKSFHGKVIDLWLEMVEEGVPPNEFTYTLVVSSYAKQGFKEEALKAFGEMKSLGFVPEEVTYSSVISLSVKAGDWEKAIGLYEDMRSQGIVPSNYTCATMLSLYYKTENYPKALSLFADMERNKIPADEVIRGLIIRIYGKLGLFHDAQSMFEETERLNLLADEKTYLAMSQVHLNSGNVVKALDVIEMMKTRDIPLSRFAYIVMLQCYAKIQNVDCAEEAFRALSKTGLPDASSCNDMLNLYTRLNLGEKAKGFIKQIMVDQVHFDIELYKTAMRVYCKEGMVAEAQDLIVKMGREARVKDNRFVQTLAESMHIVNKHDKHEAVLNVSQLDVMALGLMLNLRLKEGNLNETKAILNLMFKTDLGSSAVNRVISSFVREGDVSKAEMIADIIIRLGLRMEEETIATLIAVYGRQHKLKEAKRLYLAAGESKTPGKSVIRSMIDAYVRCGWLEDAYGLFMESAEKGCDPGAVTISILVNALTNRGKHREAEHISRTCLEKNIELDTVGYNTLIKAMLEAGKLQCASEIYERMHTSGVPCSIQTYNTMISVYGRGLQLDKAIEIFSNARRSGLYLDEKIYTNMIMHYGKGGKMSEALSLFSEMQKKGIKPGTPSYNMMVKICATSRLHHEVDELLQAMERNGRCTDLSTYLTLIQVYAESSQFAEAEKTITLVKEKGIPLSHSHFSSLLSALVKAGMMEEAERTYCKMSEAGISPDSACKRTILKGYMTCGDAEKGILFYEKMIRSSVEDDRFVSSVVEDLYKAVGKEQDV
[3]
  binding: no binding

B3: EMB1006-CT (EMB1006 amino acids 273-724, 11 PPR motifs) (domain or fragment, UniProt Q9FGR7 273-723)
chain: VRLYNAAISGLSASQRYDDAWEVYEAMDKINVYPDNVTCAILITTLRKAGRSAKEVWEIFEKMSEKGVKWSQDVFGGLVKSFCDEGLKEEALVIQTEMEKKGIRSNTIVYNTLMDAYNKSNHIEEVEGLFTEMRDKGLKPSAATYNILMDAYARRMQPDIVETLLREMEDLGLEPNVKSYTCLISAYGRTKKMSDMAADAFLRMKKVGLKPSSHSYTALIHAYSVSGWHEKAYASFEEMCKEGIKPSVETYTSVLDAFRRSGDTGKLMEIWKLMLREKIKGTRITYNTLLDGFAKQGLYIEARDVVSEFSKMGLQPSVMTYNMLMNAYARGGQDAKLPQLLKEMAALNLKPDSITYSTMIYAFVRVRDFKRAFFYHKMMVKSGQVPDPRSYEKLRAILEDKAKTKNRKDKTAILGIINSKFGRVKAKTKGKKDEFWKYKTNRTTSPGRHRS
[4]
  binding: no binding
